{
  "source": "patent US12329159B2",
  "about": "“Systems and methods for use of chlorine dioxide in cultivation and post-harvest applications” (Prokure Solutions, LLC, priority 2018, dated 2025)",
  "key": {"[1]": {"assay": "Chlorine dioxide gas concentration monitored in treated space"}, "[2]": {"tested_on": "fresh and dried Cannabis flower", "assay": "Terpene smell to the human nose of treated flower"}, "dried Cannabis flower": {"tested_on": "dried Cannabis flower", "assay": "Dry flower phytochemical profiling after chlorine dioxide gas treatment", "details": "18 hours"}, "Cannabis plants": {"tested_on": "Cannabis plants", "assay": "Plant tissue analysis of leaves (nutrients and total chloride), Trial 1", "type": "in vivo", "details": "for Boron (B) / Calcium (Ca) / Copper (Cu) / Iron (Fe) / Magnesium (Mg) / Manganese (Mn) / Nitrate / Phosphate / Potash (K) / Sodium (Na) / Sulfur (S) / Zinc (Zn): After, 1.9 mg chlorine dioxide per cubic foot, 18 hours"}, "[3]": {"details": "dose 10 mg chlorine dioxide gas/100 grams of flower"}, "[4]": {"details": "dose 14 mg chlorine dioxide gas/100 grams of flower"}, "[5]": {"details": "dose 25 mg chlorine dioxide gas/100 grams of flower"}, "[6]": {"details": "dose 50 mg chlorine dioxide gas/100 grams of flower"}},
  "data": [
    {"smiles": "[O][Cl+][O-]", "note": "[chlorine dioxide]", "values": [
      {"measurement": "measured maximum chlorine dioxide concentration", "setting": "[1]; Trial 1, 1.9 mg per cubic foot, 1550 cubic feet, 4 plants", "result": "about 16 ppmv"},
      {"measurement": "measured maximum chlorine dioxide concentration", "setting": "[1]; Trial 2, 0.45 mg per cubic foot, 840 healthy flowering plants", "result": "about 1.2 ppmv"},
      {"measurement": "chlorine dioxide smell during treatment", "setting": "[1]; Trial 3, 18-hour treatment period", "result": "there was no chlorine dioxide smell"},
      {"measurement": "terpene smell to the human nose", "setting": "[2]; dose of 50 mg", "result": "the terpene smell was diminished to the human nose"},
      {"measurement": "terpene smell to the human nose", "setting": "[2]; dose of 725 mg (so in the source)", "result": "the terpene smell was diminished to the human nose"},
      {"measurement": "CBD Changes in Wt. % from control", "setting": "dried Cannabis flower; [3]", "result": "−0.17", "unit": "Wt. %"},
      {"measurement": "CBD Weight %", "setting": "dried Cannabis flower; [3]", "result": 0.00, "unit": "Weight %"},
      {"measurement": "THC Changes in Wt. % from control", "setting": "dried Cannabis flower; [3]", "result": "−0.14", "unit": "Wt. %"},
      {"measurement": "THC Weight %", "setting": "dried Cannabis flower; [3]", "result": 15.03, "unit": "Weight %"},
      {"measurement": "Total Cannabinoid Changes in Wt. % from control", "setting": "dried Cannabis flower; [3]", "result": "−0.45", "unit": "Wt. %"},
      {"measurement": "Total Cannabinoid Weight %", "setting": "dried Cannabis flower; [3]", "result": 17.11, "unit": "Weight %"},
      {"measurement": "Total Terpene Changes in Wt. % from control", "setting": "dried Cannabis flower; [3]", "result": 0.04, "unit": "Wt. %"},
      {"measurement": "Total Terpene Weight %", "setting": "dried Cannabis flower; [3]", "result": 0.80, "unit": "Weight %"},
      {"measurement": "CBD Changes in Wt. % from control", "setting": "dried Cannabis flower; [4]", "result": "−0.12", "unit": "Wt. %"},
      {"measurement": "CBD Weight %", "setting": "dried Cannabis flower; [4]", "result": 0.05, "unit": "Weight %"},
      {"measurement": "THC Changes in Wt. % from control", "setting": "dried Cannabis flower; [4]", "result": 1.02, "unit": "Wt. %"},
      {"measurement": "THC Weight %", "setting": "dried Cannabis flower; [4]", "result": 16.19, "unit": "Weight %"},
      {"measurement": "Total Cannabinoid Changes in Wt. % from control", "setting": "dried Cannabis flower; [4]", "result": 1.04, "unit": "Wt. %"},
      {"measurement": "Total Cannabinoid Weight %", "setting": "dried Cannabis flower; [4]", "result": 18.60, "unit": "Weight %"},
      {"measurement": "Total Terpene Changes in Wt. % from control", "setting": "dried Cannabis flower; [4]", "result": "−0.07", "unit": "Wt. %"},
      {"measurement": "Total Terpene Weight %", "setting": "dried Cannabis flower; [4]", "result": 0.69, "unit": "Weight %"},
      {"measurement": "CBD Changes in Wt. % from control", "setting": "dried Cannabis flower; [5]", "result": "−0.16", "unit": "Wt. %"},
      {"measurement": "CBD Weight %", "setting": "dried Cannabis flower; [5]", "result": 0.01, "unit": "Weight %"},
      {"measurement": "THC Changes in Wt. % from control", "setting": "dried Cannabis flower; [5]", "result": 0.76, "unit": "Wt. %"},
      {"measurement": "THC Weight %", "setting": "dried Cannabis flower; [5]", "result": 15.93, "unit": "Weight %"},
      {"measurement": "Total Cannabinoid Changes in Wt. % from control", "setting": "dried Cannabis flower; [5]", "result": 0.72, "unit": "Wt. %"},
      {"measurement": "Total Cannabinoid Weight %", "setting": "dried Cannabis flower; [5]", "result": 18.28, "unit": "Weight %"},
      {"measurement": "Total Terpene Changes in Wt. % from control", "setting": "dried Cannabis flower; [5]", "result": 0.06, "unit": "Wt. %"},
      {"measurement": "Total Terpene Weight %", "setting": "dried Cannabis flower; [5]", "result": 0.82, "unit": "Weight %"},
      {"measurement": "CBD Changes in Wt. % from control", "setting": "dried Cannabis flower; [6]", "result": "−0.16", "unit": "Wt. %"},
      {"measurement": "CBD Weight %", "setting": "dried Cannabis flower; [6]", "result": 0.01, "unit": "Weight %"},
      {"measurement": "THC Changes in Wt. % from control", "setting": "dried Cannabis flower; [6]", "result": 0.20, "unit": "Wt. %"},
      {"measurement": "THC Weight %", "setting": "dried Cannabis flower; [6]", "result": 15.37, "unit": "Weight %"},
      {"measurement": "Total Cannabinoid Changes in Wt. % from control", "setting": "dried Cannabis flower; [6]", "result": "−0.04", "unit": "Wt. %"},
      {"measurement": "Total Cannabinoid Weight %", "setting": "dried Cannabis flower; [6]", "result": 17.52, "unit": "Weight %"},
      {"measurement": "Total Terpene Changes in Wt. % from control", "setting": "dried Cannabis flower; [6]", "result": 0.02, "unit": "Wt. %"},
      {"measurement": "Total Terpene Weight %", "setting": "dried Cannabis flower; [6]", "result": 0.78, "unit": "Weight %"},
      {"measurement": "chloride levels of leaf tissues, before vs after treatment", "setting": "Cannabis plants; Trial 1", "result": "remained unchanged"},
      {"measurement": "Boron (B)", "setting": "Cannabis plants; Trial 1, Flowering Plants", "result": 65, "unit": "ppm"},
      {"measurement": "Calcium (Ca)", "setting": "Cannabis plants; Trial 1, Flowering Plants", "result": 2.8, "unit": "%"},
      {"measurement": "Copper (Cu)", "setting": "Cannabis plants; Trial 1, Flowering Plants", "result": 9.7, "unit": "ppm"},
      {"measurement": "Iron (Fe)", "setting": "Cannabis plants; Trial 1, Flowering Plants", "result": 150, "unit": "ppm"},
      {"measurement": "Magnesium (Mg)", "setting": "Cannabis plants; Trial 1, Flowering Plants", "result": 0.94, "unit": "%"},
      {"measurement": "Manganese (Mn)", "setting": "Cannabis plants; Trial 1, Flowering Plants", "result": 52, "unit": "ppm"},
      {"measurement": "Nitrate", "setting": "Cannabis plants; Trial 1, Flowering Plants", "result": 5400, "unit": "ppm"},
      {"measurement": "Phosphate", "setting": "Cannabis plants; Trial 1, Flowering Plants", "result": 2400, "unit": "ppm"},
      {"measurement": "Potash (K)", "setting": "Cannabis plants; Trial 1, Flowering Plants", "result": 3.1, "unit": "%"},
      {"measurement": "Sodium (Na)", "setting": "Cannabis plants; Trial 1, Flowering Plants", "result": 0.02, "unit": "%"},
      {"measurement": "Sulfur (S)", "setting": "Cannabis plants; Trial 1, Flowering Plants", "result": 0.23, "unit": "%"},
      {"measurement": "Zinc (Zn)", "setting": "Cannabis plants; Trial 1, Flowering Plants", "result": 39, "unit": "ppm"},
      {"measurement": "Boron (B)", "setting": "Cannabis plants; Trial 1, Veg plants", "result": 92, "unit": "ppm"},
      {"measurement": "Calcium (Ca)", "setting": "Cannabis plants; Trial 1, Veg plants", "result": 3.8, "unit": "%"},
      {"measurement": "Copper (Cu)", "setting": "Cannabis plants; Trial 1, Veg plants", "result": 7.5, "unit": "ppm"},
      {"measurement": "Iron (Fe)", "setting": "Cannabis plants; Trial 1, Veg plants", "result": 200, "unit": "ppm"},
      {"measurement": "Magnesium (Mg)", "setting": "Cannabis plants; Trial 1, Veg plants", "result": 1.2, "unit": "%"},
      {"measurement": "Manganese (Mn)", "setting": "Cannabis plants; Trial 1, Veg plants", "result": 35, "unit": "ppm"},
      {"measurement": "Nitrate", "setting": "Cannabis plants; Trial 1, Veg plants", "result": 12700, "unit": "ppm"},
      {"measurement": "Phosphate", "setting": "Cannabis plants; Trial 1, Veg plants", "result": 2800, "unit": "ppm"},
      {"measurement": "Potash (K)", "setting": "Cannabis plants; Trial 1, Veg plants", "result": 2.9, "unit": "%"},
      {"measurement": "Sodium (Na)", "setting": "Cannabis plants; Trial 1, Veg plants", "result": 0.02, "unit": "%"},
      {"measurement": "Sulfur (S)", "setting": "Cannabis plants; Trial 1, Veg plants", "result": 0.27, "unit": "%"},
      {"measurement": "Zinc (Zn)", "setting": "Cannabis plants; Trial 1, Veg plants", "result": 51, "unit": "ppm"}
    ]}
  ]
}
